{"source": "patent US20250195488A1", "about": "“MEDICINE CONTAINING VITAMIN D DERIVATIVE OR PHARMACEUTICALLY ACCEPTABLE SALT OR SOLVATE THEREOF, USED IN COMBINATION WITH IMMUNOMODULATORY SUBSTANCE” (TEEJIN PHARMA LIMITED, priority 2022, published 2025)", "system": "rat oligodendrocyte progenitor cells", "experiment": "Promotive activity of rat oligodendrocyte progenitor cell differentiation-2 (immunostaining of MBP)", "assay_type": "cell-based", "conditions": "t-test vs DMSO group", "method": "The promotive activity of oligodendrocyte progenitor cell (OPC) differentiation of the vitamin D derivatives was evaluated by immunostaining of MBP.\nSubsequently, oligodendrocyte progenitor cell separation medium was added to the flask, and the mixture was similarly shaken for about 22 hours (37° C., 200 rpm), and the supernatant was collected to prepare oligodendrocyte progenitor cells.", "note": "Some results come without the dose or concentration used.", "data": [{"molecule": "C=C1[C@H](O)CC(=C/C=C2\\CCC[C@]3(C)[C@@H]([C@H](C)CN4CCCC(O)(C(F)F)C4)CC[C@@H]23)C[C@H]1O", "note": "(single isomer, unassigned) [Compound C036a]", "values": [{"measurement": "Significant difference", "setting": "Test 2", "result": "**** (<0.0001)"}]}, {"molecule": "C=C1[C@H](O)CC(=C/C=C2\\CCC[C@]3(C)[C@@H]([C@H](C)CN4CCCC(O)(C(F)F)C4)CC[C@@H]23)C[C@H]1O", "note": "(single isomer, unassigned) [Compound C036b]", "values": [{"measurement": "Significant difference", "setting": "Test 2", "result": "*** (<0.001)"}]}, {"molecule": "C=C1/C(=C\\C=C2/CCC[C@]3(C)[C@@H]([C@H](C)CN4CC[C@H](C(F)F)C4)CC[C@@H]23)C[C@@H](O)C[C@@H]1O", "note": "[Compound B020, (1R,3S,Z)-5-(2-((1R,3aS,7aR,E)-1-((S)-1-((S)-3-(difluoromethyl)pyrrolidin-1-yl)propan-2-yl)-7a-methyloctahydro-4H-inden-4-ylidene)ethylidene)-4-methylenecyclohexane-1,3-diol]", "values": [{"measurement": "Significant difference", "setting": "Test 1", "result": "**** (<0.0001)"}]}, {"molecule": "C[C@H](CN1CC[C@H](C(F)F)C1)[C@H]1CC[C@H]2/C(=C/C=C3C[C@@H](O)C[C@H](O)C3)CCC[C@]12C", "note": "[Compound B022, (1R,3R)-5-(2-((1R,3aS,7aR,E)-1-((S)-1-((S)-3-(difluoromethyl)pyrrolidin-1l-yl)propan-2-yl)-7a-methyloctahydro-4H-inden-4-ylidene)ethylidene)cyclohexane-1,3-diol]", "values": [{"measurement": "Significant difference", "setting": "Test 1", "result": "**** (<0.0001)"}]}, {"molecule": "C=C1[C@H](O)CC(=C/C=C2\\CCC[C@]3(C)[C@@H]([C@H](C)CN4CC[C@H](C(F)F)C4)CC[C@@H]23)C[C@H]1O", "note": "[Compound B023, (1R,3R)-5-(2-((1R,3aS,7aR,E)-1-((S)-1-((S)-3-(difluoromethyl)pyrrolidin-1-yl)propan-2-yl)-7a-methyloctahydro-4H-inden-4-ylidene)ethylidene)-2-methylenecyclohexane-1,3-diol]", "values": [{"measurement": "Significant difference", "setting": "Test 1", "result": "**** (<0.0001)"}]}, {"molecule": "C=C1/C(=C\\C=C2/CCC[C@]3(C)[C@@H]([C@H](C)CN4CC[C@@H](C(F)F)C4)CC[C@@H]23)C[C@@H](O)C[C@@H]1O", "note": "[Compound B024, (1R,3S,Z)-5-(2-((1R,3aS,7aR,E)-1-((S)-1-((R)-3-(difluoromethyl)pyrrolidin-1-yl)propan-2-yl)-7a-methyloctahydro-4H-inden-4-ylidene)ethylidene)-4-methylenecyclohexane-1,3-diol]", "values": [{"measurement": "Significant difference", "setting": "Test 1", "result": "**** (<0.0001)"}]}, {"molecule": "C[C@H](CN1CC[C@@H](C(F)F)C1)[C@H]1CC[C@H]2/C(=C/C=C3C[C@@H](O)C[C@H](O)C3)CCC[C@]12C", "note": "[Compound B026, (1R,3R)-5-(2-((1R,3aS,7aR,E)-1-((S)-1-((R)-3-(difluoromethyl)pyrrolidin-1l-yl)propan-2-yl)-7a-methyloctahydro-4H-inden-4-ylidene)ethylidene)cyclohexane-1,3-diol]", "values": [{"measurement": "Significant difference", "setting": "Test 1", "result": "**** (<0.0001)"}]}, {"molecule": "C=C1[C@H](O)CC(=C/C=C2\\CCC[C@]3(C)[C@@H]([C@H](C)CN4CC[C@@H](C(F)F)C4)CC[C@@H]23)C[C@H]1O", "note": "[Compound B027, (1R,3R)-5-(2-((1R,3aS,7aR,E)-1-((S)-1-((R)-3-(difluoromethyl)pyrrolidin-1-yl)propan-2-yl)-7a-methyloctahydro-4H-inden-4-ylidene)ethylidene)-2-methylenecyclohexane-1,3-diol]", "values": [{"measurement": "Significant difference", "setting": "Test 1", "result": "**** (<0.0001)"}]}, {"molecule": "C=C1/C(=C\\C=C2/CCC[C@]3(C)[C@@H]([C@H](C)CN4CC[C@H](C(C)(F)F)C4)CC[C@@H]23)C[C@@H](O)[C@H](C)[C@@H]1O", "note": "[Compound B029, (1R,2S,3S,Z)-5-(2-((1R,3aS,7aR,E)-1-((S)-1-((S)-3-(1,1-difluoroethyl)pyrrolidin-1-yl)propan-2-yl)-7a-methyloctahydro-4H-inden-4-ylidene)ethylidene)-2-methyl-4-methylenecyclohexane-1,3-diol]", "values": [{"measurement": "Significant difference", "setting": "Test 1", "result": "**** (<0.0001)"}]}, {"molecule": "C[C@H](CN1CC[C@@H](C(C)(F)F)C1)[C@H]1CC[C@H]2/C(=C/C=C3C[C@@H](O)C[C@H](O)C3)CCC[C@]12C", "note": "[Compound B034, (1R,3R)-5-(2-((1R,3aS,7aR,E)-1-((S)-1-((R)-3-(1,1-difluoroethyl)pyrrolidin-1-yl)propan-2-yl)-7a-methyloctahydro-4H-inden-4-ylidene)ethylidene)cyclohexane-1,3-diol]", "values": [{"measurement": "Significant difference", "setting": "Test 1", "result": "**** (<0.0001)"}]}, {"molecule": "C=C1/C(=C\\C=C2/CCC[C@]3(C)[C@@H]([C@H](C)CN4CC[C@H](CC(F)F)C4)CC[C@@H]23)C[C@@H](O)C[C@@H]1O", "note": "[Compound B036, (1R,3S,Z)-5-(2-((1R,3aS,7aR,E)-1-((S)-1-((R)-3-(2,2-difluoroethyl)pyrrolidin-1-yl)propan-2-yl)-7a-methyloctahydro-4H-inden-4-ylidene)ethylidene)-4-methylcyclohexane-1,3-diol]", "values": [{"measurement": "Significant difference", "setting": "Test 1", "result": "**** (<0.0001)"}]}, {"molecule": "C=C1/C(=C\\C=C2/CCC[C@]3(C)[C@@H]([C@H](C)CN4CC[C@@H](CC(F)F)C4)CC[C@@H]23)C[C@@H](O)C[C@@H]1O", "note": "[Compound B037, (1R,3S,Z)-5-(2-((1R,3aS,7aR,E)-1-((S)-1-((S)-3-(2,2-difluoroethyl)pyrrolidin-1-yl)propan-2-yl)-7a-methyloctahydro-4H-inden-4-ylidene)ethylidene)-4-methylenecyclohexane-1,3-diol]", "values": [{"measurement": "Significant difference", "setting": "Test 1", "result": "**** (<0.0001)"}]}, {"molecule": "C=C1[C@H](O)CC(=C/C=C2\\CCC[C@]3(C)[C@@H]([C@H](C)CN4CC[C@H](CC(F)F)C4)CC[C@@H]23)C[C@H]1O", "note": "[Compound B040, (1R,3R)-5-(2-((1R,3aS,7aR,E)-1-((S)-1-((R)-3-(2,2-difluoroethyl)pyrrolidin-1-yl)propan-2-yl)-7a-methyloctahydro-4H-inden-4-ylidene)ethylidene)-2-methylenecyclohexane-1,3-diol]", "values": [{"measurement": "Significant difference", "setting": "Test 1", "result": "**** (<0.0001)"}]}, {"molecule": "C=C1[C@H](O)CC(=C/C=C2\\CCC[C@]3(C)[C@@H]([C@H](C)CN4CC[C@@H](CC(F)F)C4)CC[C@@H]23)C[C@H]1O", "note": "[Compound B041, (1R,3R)-5-(2-((1R,3aS,7aR,E)-1-((S)-1-((S)-3-(2,2-difluoroethyl)pyrrolidin-1-yl)propan-2-yl)-7a-methyloctahydro-4H-inden-4-ylidene)ethylidene)-2-methylenecyclohexane-1,3-diol]", "values": [{"measurement": "Significant difference", "setting": "Test 1", "result": "**** (<0.0001)"}]}, {"molecule": "C[C@H](CN1CC[C@H](CC(F)F)C1)[C@H]1CC[C@H]2/C(=C/C=C3C[C@@H](O)C[C@H](O)C3)CCC[C@]12C", "note": "[Compound B042, (1R,3R)-5-(2-((1R,3aS,7aR,E)-1-((S)-1-((R)-3-(2,2-difluoroethyl)pyrrolidin-1-yl)propan-2-yl)-7a-methyloctahydro-4H-inden-4-ylidene)ethylidene)cyclohexane-1,3-diol]", "values": [{"measurement": "Significant difference", "setting": "Test 1", "result": "**** (<0.0001)"}]}, {"molecule": "C[C@H](CN1CC[C@@H](CC(F)F)C1)[C@H]1CC[C@H]2/C(=C/C=C3C[C@@H](O)C[C@H](O)C3)CCC[C@]12C", "note": "[Compound B043, (1R,3R)-5-(2-((1R,3aS,7aR,E)-1-((S)-1-((S)-3-(2,2-difluoroethyl)pyrrolidin-1-yl)propan-2-yl)-7a-methyloctahydro-4H-inden-4-ylidene)ethylidene)cyclohexane-1,3-diol]", "values": [{"measurement": "Significant difference", "setting": "Test 2", "result": "**** (<0.0001)"}]}]}
